Consider two molecules from publication PMC10681800, “Structural and functional investigation of GajB protein in Gabija anti-phage defense” (Nucleic Acids Research, 2023).

These are yes or no findings as the source states them, for the method shown. Some results given as binding are weak or reduced against the parent protein; the word gives no strength. Tags and fused reporters may be left off the sequences shown.

Assay [1] has as its target T1, GajA of Bacillus cereus VD045 co-expressed with GajB, made with an N-terminal (His)6-MBP tag that was removed before the final SEC (Bacillus cereus VD045) (UniProt J8H9C1).
T1 sequence: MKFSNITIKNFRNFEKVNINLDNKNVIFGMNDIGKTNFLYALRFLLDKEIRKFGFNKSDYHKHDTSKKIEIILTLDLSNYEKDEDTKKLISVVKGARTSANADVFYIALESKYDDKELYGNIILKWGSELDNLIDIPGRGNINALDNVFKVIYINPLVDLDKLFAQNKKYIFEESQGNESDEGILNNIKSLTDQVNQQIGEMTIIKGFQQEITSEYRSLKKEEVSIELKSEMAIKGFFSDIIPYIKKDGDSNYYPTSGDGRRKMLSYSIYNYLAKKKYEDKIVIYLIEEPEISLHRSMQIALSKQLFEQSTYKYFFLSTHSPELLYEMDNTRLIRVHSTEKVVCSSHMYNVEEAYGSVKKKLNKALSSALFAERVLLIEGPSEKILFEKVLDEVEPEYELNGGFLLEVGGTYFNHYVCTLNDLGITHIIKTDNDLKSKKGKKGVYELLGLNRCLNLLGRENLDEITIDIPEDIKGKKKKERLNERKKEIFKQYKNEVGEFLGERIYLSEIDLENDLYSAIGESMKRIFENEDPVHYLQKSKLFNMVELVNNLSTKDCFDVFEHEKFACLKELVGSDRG
Description: co-purification + SEC; (His)6-MBP-GajA and untagged GajB co-expressed in E. coli; purified on HisTrap HP, tag cleaved by TEV, final SEC on Superdex 200 in 300 mM NaCl, 5% glycerol, 2 mM DTT, 20 mM HEPES pH 7.5.

The target in assay [2] is GajB of the Gabija anti-phage defense system of Bacillus cereus VD045, purified on its own, (His)6-MBP tag cleaved by TEV protease (Bacillus cereus VD045) (UniProt J8HQ06). Put plainly: SEC-MALS + SEC; each protein alone; Superdex 200 Increase 10/300 GL with miniDAWN/Optilab, 300 mM NaCl, 2 mM DTT, 5% glycerol, 20 mM HEPES pH 7.5, 20 μM, 25 °C; analytical SEC in the same buffer; both purified. On the technique in general: SEC sorts molecules by how far they enter the pores of the column.

B1: GajB of Bacillus cereus VD045, untagged, co-expressed with (His)6-MBP-GajA (protein, UniProt J8HQ06 1-494)
chain: MSREQIIKDGGNILVTAGAGSGKTTILVSKIEADLKENKTHYSIAAVTFTNKAAKEIEGRLGYSSRGNFIGTNDGFVESEIIRPFIKDAFGNDYPDNFTAEYFDNQFASYDKGLQVLKYQNILGTYSNPKKNFKFQLALDILKKSLVARQYIFSKYFKIFIDEYQDSDKDMHNLFMYLKDQLKIKLFIVGDPKQSIYIWRGAEPENFNGLIENSTDFNKYHLTSNFRCCQDIQNYSNLFNEETRSLIKEKNEVQNVISIADDMPISDILLKLTEEKQVLNIEAELVILVRRRNQAIEIMKELNEEGFNFIFIPQTPLDRATPNATLLKEVIKYVKNDRYSIYDLAAEIVGNLSSREIKEIQKIINELLVPNINQVLINQVLINLFAKLEITLDTREITAFTEVMMTNEFDIAFDTNEYLHKIFTVHSAKGLEFNQVIITASDYNVHYNRDTNEHYVATTRAKDKLIVIMDNKKYSDYIETLMKELKIKNIIKSI
With B1, the binding result in assay [1] was “binds”.

B2: GajB of the Gabija anti-phage defense system of Bacillus cereus VD045, purified on its own, (His)6-MBP tag cleaved by TEV protease (natural protein)
chain: B1 chain
notes: GajB, Bacillus cereus VD045, synthetic gene in pET28a with (His)6-MBP and a TEV site; 57.1 kDa as printed; the subdomains of the crystal structure span residues 1-494; the shorter of the two GajB forms that the discussion tells of (the long form has five more N-terminal residues); Monomer by SEC-MALS and analytical SEC; also called individually purified GajB; separately purified GajB; source: E. …
For B2, the binding entry in assay [2] was “no binding (tested: 20 μM)”.
